Assay results taken from patent US20250367313A1 (MULTITUDE, published 2025).
These are yes or no findings as the source states them, for the method shown. A result given as binding can be weak or reduced; the word gives no strength.

Key:
primate MUC18 (primate) [1] = assay: flow cytometry on cells expressing primate MUC18
primate MUC18 (primate) [2] = assay: flow cytometry on A375 cells expressing primate MUC18
primate MUC18 (primate) [3] = assay: flow cytometry on A375 cells expressing primate MUC18, FITC-A; single antibody concentration, not given

binding (primate MUC18 (primate) [1]): binds
binding (primate MUC18 (primate) [2]): binds
binding (primate MUC18 (primate) [3]): binds
B1: J253 (antibody, V domains shown)
VH: QVQLQQSGAELVKPGASVKLSCKASGYTFTSYDINWVRQRPEQGLEWIGWIFPGDGSTDYNEKFKGKATLTTDKSSSTAYMQLSRLTSEDSAVYFCARYHFFDNWGQGTTLTVSS
VL: DIVITQDELSNPVTSGESVSISCRSSKSLLYKDGKTYLSWFLQRPGQSPQLLIYLMSTRASGVSDRFSGSGSGTDFTLEISRVKAEDVGVYYCQQLVEYPYTFGGGTKLEIK
notes: also called anti-MUC18 antibody (J253)
